Results are given in words; binding and its absence hold for the method and conditions named. Binding seen in cells or lysates may run through a third protein. Some results given as binding are weak or reduced against the parent protein; the word gives no strength.
T1: FLOT2 (human (endogenous in HEK293)) (UniProt Q14254)
T1 sequence: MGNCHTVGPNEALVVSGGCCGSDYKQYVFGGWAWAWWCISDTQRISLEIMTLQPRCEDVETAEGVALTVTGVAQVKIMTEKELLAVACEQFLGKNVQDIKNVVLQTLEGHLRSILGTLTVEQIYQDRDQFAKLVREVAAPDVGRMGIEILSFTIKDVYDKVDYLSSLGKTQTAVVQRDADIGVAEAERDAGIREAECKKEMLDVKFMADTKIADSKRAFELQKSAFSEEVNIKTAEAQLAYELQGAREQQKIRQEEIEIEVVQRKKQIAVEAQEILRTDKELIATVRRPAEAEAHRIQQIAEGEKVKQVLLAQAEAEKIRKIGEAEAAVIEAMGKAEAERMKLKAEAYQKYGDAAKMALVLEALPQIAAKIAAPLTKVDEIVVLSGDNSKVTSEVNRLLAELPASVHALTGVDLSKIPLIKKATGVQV

B1: PLSCR1 (protein, UniProt O15162 1-318)
chain: MDKQNSQMNASHPETNLPVGYPPQYPPTAFQGPPGYSGYPGPQVSYPPPPAGHSGPGPAGFPVPNQPVYNQPVYNQPVGAAGVPWMPAPQPPLNCPPGLEYLSQIDQILIHQQIELLEVLTGFETNNKYEIKNSFGQRVYFAAEDTDCCTRNCCGPSRPFTLRIIDNMGQEVITLERPLRCSSCCCPCCLQEIEIQAPPGVPIGYVIQTWHPCLPKFTIQNEKREDVLKISGPCVVCSCCGDVDFEIKSLDEQCVVGKISKHWTGILREAFTDADNFGIQFPLDLDVKMKAVMIGACFLIDFMFFESTGSQEQKSGVW
B2: LPHN2 (latrophilin) (receptor, UniProt O95490 26-1459)
chain: FSRAALPFGLVRRELSCEGYSIDLRCPGSDVIMIESANYGRTDDKICDADPFQMENTDCYLPDAFKIMTQRCNNRTQCIVVTGSDVFPDPCPGTYKYLEVQYECVPYIFVCPGTLKAIVDSPCIYEAEQKAGAWCKDPLQAADKIYFMPWTPYRTDTLIEYASLEDFQNSRQTTTYKLPNRVDGTGFVVYDGAVFFNKERTRNIVKFDLRTRIKSGEAIINYANYHDTSPYRWGGKTDIDLAVDENGLWVIYATEQNNGMIVISQLNPYTLRFEATWETVYDKRAASNAFMICGVLYVVRSVYQDNESETGKNSIDYIYNTRLNRGEYVDVPFPNQYQYIAAVDYNPRDNQLYVWNNNFILRYSLEFGPPDPAQVPTTAVTITSSAELFKTIISTTSTTSQKGPMSTTVAGSQEGSKGTKPPPAVSTTKIPPITNIFPLPERFCEALDSKGIKWPQTQRGMMVERPCPKGTRGTASYLCMISTGTWNPKGPDLSNCTSHWVNQLAQKIRSGENAASLANELAKHTKGPVFAGDVSSSVRLMEQLVDILDAQLQELKPSEKDSAGRSYNKLQKREKTCRAYLKAIVDTVDNLLRPEALESWKHMNSSEQAHTATMLLDTLEEGAFVLADNLLEPTRVSMPTENIVLEVAVLSTEGQIQDFKFPLGIKGAGSSIQLSANTVKQNSRNGLAKLVFIIYRSLGQFLSTENATIKLGADFIGRNSTIAVNSHVISVSINKESSRVYLTDPVLFTLPHIDPDNYFNANCSFWNYSERTMMGYWSTQGCKLVDTNKTRTTCACSHLTNFAILMAHREIAYKDGVHELLLTVITWVGIVISLVCLAICIFTFCFFRGLQSDRNTIHKNLCINLFIAEFIFLIGIDKTKYAIACPIFAGLLHFFFLAAFAWMCLEGVQLYLMLVEVFESEYSRKKYYYVAGYLFPATVVGVSAAIDYKSYGTEKACWLHVDNYFIWSFIGPVTFIILLNIIFLVITLCKMVKHSNTLKPDSSRLENIKSWVLGAFALLCLLGLTWSFGLLFINEETIVMAYLFTIFNAFQGVFIFIFHCALQKKVRKEYGKCFRHSYCCGGLPTESPHSSVKASTTRTSARYSSGTQSRIRRMWNDTVRKQSESSFISGDINSTSTLNQGMTGNYLLTNPLLRPHGTNNPYNTLLAETVVCNAPSAPVFNSPGHSLNNARDTSAMDTLPLNGNFNNSYSLHKGDYNDSVQVVDCGLSLNDTAFEKMIISELVHNNLRGSSKTHNLELTLPVKPVIGGSSSEDDAIVADASSLMHSDNPGLELHHKELEAPLIPQRTHSLLYQPQKKVKSEGTDSYVSQLTAEAEDHLQSPNRDSLYTSMPNLRDSPYPESSPDMEEDLSPSRRSENEDIYYKSMPNLGAGHQLQMCYQISRGNSDGYIIPINKEGCIPEGDVREGQMQLVTSL
B3: LPHN1 (latrophilin) (receptor, UniProt O94910 25-1474)
chain: LSRAGLPFGLMRRELACEGYPIELRCPGSDVIMVENANYGRTDDKICDADPFQMENVQCYLPDAFKIMSQRCNNRTQCVVVAGSDAFPDPCPGTYKYLEVQYDCVPYKVEQKVFVCPGTLQKVLEPTSTHESEHQSGAWCKDPLQAGDRIYVMPWIPYRTDTLTEYASWEDYVAARHTTTYRLPNRVDGTGFVVYDGAVFYNKERTRNIVKYDLRTRIKSGETVINTANYHDTSPYRWGGKTDIDLAVDENGLWVIYATEGNNGRLVVSQLNPYTLRFEGTWETGYDKRSASNAFMVCGVLYVLRSVYVDDDSEAAGNRVDYAFNTNANREEPVSLTFPNPYQFISSVDYNPRDNQLYVWNNYFVVRYSLEFGPPDPSAGPATSPPLSTTTTARPTPLTSTASPAATTPLRRAPLTTHPVGAINQLGPDLPPATAPVPSTRRPPAPNLHVSPELFCEPREVRRVQWPATQQGMLVERPCPKGTRGIASFQCLPALGLWNPRGPDLSNCTSPWVNQVAQKIKSGENAANIASELARHTRGSIYAGDVSSSVKLMEQLLDILDAQLQALRPIERESAGKNYNKMHKRERTCKDYIKAVVETVDNLLRPEALESWKDMNATEQVHTATMLLDVLEEGAFLLADNVREPARFLAAKENVVLEVTVLNTEGQVQELVFPQEEYPRKNSIQLSAKTIKQNSRNGVVKVVFILYNNLGLFLSTENATVKLAGEAGPGGPGGASLVVNSQVIAASINKESSRVFLMDPVIFTVAHLEDKNHFNANCSFWNYSERSMLGYWSTQGCRLVESNKTHTTCACSHLTNFAVLMAHREIYQGRINELLLSVITWVGIVISLVCLAICISTFCFLRGLQTDRNTIHKNLCINLFLAELLFLVGIDKTQYEIACPIFAGLLHYFFLAAFSWLCLEGVHLYLLLVEVFESEYSRTKYYYLGGYCFPALVVGIAAAIDYRSYGTEKACWLRVDNYFIWSFIGPVSFVIVVNLVFLMVTLHKMIRSSSVLKPDSSRLDNIKSWALGAIALLFLLGLTWAFGLLFINKESVVMAYLFTTFNAFQGVFIFVFHCALQKKVHKEYSKCLRHSYCCIRSPPGGTHGSLKTSAMRSNTRYYTGTQSRIRRMWNDTVRKQTESSFMAGDINSTPTLNRGTMGNHLLTNPVLQPRGGTSPYNTLIAESVGFNPSSPPVFNSPGSYREPKHPLGGREACGMDTLPLNGNFNNSYSLRSGDFPPGDGGPEPPRGRNLADAAAFEKMIISELVHNNLRGSSSAAKGPPPPEPPVPPVPGGGGEEEAGGPGGADRAEIELLYKALEEPLLLPRAQSVLYQSDLDESESCTAEDGATSRPLSSPPGRDSLYASGANLRDSPSYPDSSPEGPSEALPPPPPAPPGPPEIYYTSRPPALVARNPLQGYYQVRRPSHEGYLAAPGLEGPGPDGDGQMQLVTSL
B4: VANGL1 (protein, UniProt Q8TAA9 1-524)
chain: MDTESTYSGYSYYSSHSKKSHRQGERTRERHKSPRNKDGRGSEKSVTIQPPTGEPLLGNDSTRTEEVQDDNWGETTTAITGTSEHSISQEDIARISKDMEDSVGLDCKRYLGLTVASFLGLLVFLTPIAFILLPPILWRDELEPCGTICEGLFISMAFKLLILLIGTWALFFRKRRADMPRVFVFRALLLVLIFLFVVSYWLFYGVRILDSRDRNYQGIVQYAVSLVDALLFIHYLAIVLLELRQLQPMFTLQVVRSTDGESRFYSLGHLSIQRAALVVLENYYKDFTIYNPNLLTASKFRAAKHMAGLKVYNVDGPSNNATGQSRAMIAAAARRRDSSHNELYYEEAEHERRVKKRKARLVVAVEEAFIHIQRLQAEEQQKAPGEVMDPREAAQAIFPSMARALQKYLRITRQQNYHSMESILQHLAFCITNGMTPKAFLERYLSAGPTLQYDKDRWLSTQWRLVSDEAVTNGLRDGIVFVLKCLDFSLVVNVKKIPFIILSEEFIDPKSHKFVLRLQSETSV
B5: LPHN3 (latrophilin) (receptor, UniProt Q9HAR2 20-1447)
chain: FSRAPIPMAVVRRELSCESYPIELRCPGTDVIMIESANYGRTDDKICDSDPAQMENIRCYLPDAYKIMSQRCNNRTQCAVVAGPDVFPDPCPGTYKYLEVQYECVPYKVEQKVFLCPGLLKGVYQSEHLFESDHQSGAWCKDPLQASDKIYYMPWTPYRTDTLTEYSSKDDFIAGRPTTTYKLPHRVDGTGFVVYDGALFFNKERTRNIVKFDLRTRIKSGEAIIANANYHDTSPYRWGGKSDIDLAVDENGLWVIYATEQNNGKIVISQLNPYTLRIEGTWDTAYDKRSASNAFMICGILYVVKSVYEDDDNEATGNKIDYIYNTDQSKDSLVDVPFPNSYQYIAAVDYNPRDNLLYVWNNYHVVKYSLDFGPLDSRSGQAHHGQVSYISPPIHLDSELERPSVKDISTTGPLGMGSTTTSTTLRTTTLSPGRSTTPSVSGRRNRSTSTPSPAVEVLDDMTTHLPSASSQIPALEESCEAVEAREIMWFKTRQGQIAKQPCPAGTIGVSTYLCLAPDGIWDPQGPDLSNCSSPWVNHITQKLKSGETAANIARELAEQTRNHLNAGDITYSVRAMDQLVGLLDVQLRNLTPGGKDSAARSLNKAMVETVNNLLQPQALNAWRDLTTSDQLRAATMLLHTVEESAFVLADNLLKTDIVRENTDNIKLEVARLSTEGNLEDLKFPENMGHGSTIQLSANTLKQNGRNGEIRVAFVLYNNLGPYLSTENASMKLGTEALSTNHSVIVNSPVITAAINKEFSNKVYLADPVVFTVKHIKQSEENFNPNCSFWSYSKRTMTGYWSTQGCRLLTTNKTHTTCSCNHLTNFAVLMAHVEVKHSDAVHDLLLDVITWVGILLSLVCLLICIFTFCFFRGLQSDRNTIHKNLCISLFVAELLFLIGINRTDQPIACAVFAALLHFFFLAAFTWMFLEGVQLYIMLVEVFESEHSRRKYFYLVGYGMPALIVAVSAAVDYRSYGTDKVCWLRLDTYFIWSFIGPATLIIMLNVIFLGIALYKMFHHTAILKPESGCLDNIKSWVIGAIALLCLLGLTWAFGLMYINESTVIMAYLFTIFNSLQGMFIFIFHCVLQKKVRKEYGKCLRTHCCSGKSTESSIGSGKTSGSRTPGRYSTGSQSRIRRMWNDTVRKQSESSFITGDINSSASLNREGLLNNARDTSVMDTLPLNGNHGNSYSIASGEYLSNCVQIIDRGYNHNETALEKKILKELTSNYIPSYLNNHERSSEQNRNLMNKLVNNLGSGREDDAIVLDDATSFNHEESLGLELIHEESDAPLLPPRVYSTENHQPHHYTRRRIPQDHSESFFPLLTNEHTEDLQSPHRDSLYTSMPTLAGVAATESVTTSTQTEPPPAKCGDAEDVYYKSMPNLGSRNHVHQLHTYYQLGRGSSDGFIVPPNKDGTPPEGSSKGPAHLVTSL

Molecular target: FLOT1 (human (endogenous in HEK293)) (UniProt O75955)
Test: co-IP; HEK293 lysate (RIPA or 1% NP-40 lysis buffer), 1.6 mg protein with 3 µg antibody overnight at 4 °C, Protein A beads, western blot; control: empty beads

binding, binds:
B1
B2
B3
B4
B5

Molecular target: T1, FLOT2 (human (endogenous in HEK293))
Test: as above

binding, binds:
B2
B3
B5

Reference: PMC9584938
